# Results of single-concentration screens

The values are deposited in ChEMBL (CHEMBL3988442, “University of Dundee, Small-Polar-MMV Screening Library” (2021)).

The filed quantity is “Percent Effect” (%). The controls that fix the scale are not given in the record; negative values are as filed. This is an unselected part of the compounds tested.

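Assay of Toxoplasma gondii numbers, read through their beta-galactosidase reporter with a colour substrate. Concentration: 50 µM. Higher reads as fewer parasites (inferred from which compounds were picked for retests). Of about 18,000 compounds tested this way, about 170 (0.94%) reached 50% or more in at least one test.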

Compound	percent effect
C[C@H]1CNCCN1C(=O)c1cscn1	-30.8
NC(CO)c1cccc2ccccc12 (centres undefined)	40.95
COC(=O)N1CCC(NC2CCOCC2)C1 (centres undefined)	18.4
CC(=O)N(C)Cc1nc2ccccc2[nH]1	-29.52
CCn1nccc1NC(=O)c1ccccc1	5.104
O=C(CN1CSCC1=O)NC1CC1	-7.19
COCc1nc(C)cc(N(C)Cc2ccc(N)nc2)n1	9.487
Cc1cccc(CN2CCCC(N(C)C)CC2)n1 (centres undefined)	3.01
COCc1nc(C2CCN(S(C)(=O)=O)C2)no1 (centres undefined)	-61
Cn1ccsc1=NC(=O)c1cc(O)nc2ccccc12	-10.17
CN1CCN(c2ccccc2C#N)CC1	-13.51
O=C1CCC(C(=O)NCCc2ccc(F)cc2)N1 (centres undefined)	2.026
COC(=O)C1CCN(C(=O)Cc2cccc(F)c2)CC1	1.468
NC(=O)CSc1nnc(-c2cc(Br)ccc2O)[nH]1	-20.16
CC1CCCN(CCNC(=O)CN(C)S(C)(=O)=O)C1 (centres undefined)	16.82
CN(C)c1ccc(NC(=O)c2ccc(Cl)o2)cn1	-4.314
CN(C)c1cc(CNC(=O)NC2CC2)ccn1	22.52
NC(=O)CCCNC(=O)C1(c2ccccc2)CCC1	-4.563
CC(C)NC(=O)c1nnn(-c2cccc(Br)c2)c1N	4.212
CC(C)(C)CCOc1cnccc1CN	14.78
COCc1nc(CN2CCCC2c2nccs2)no1 (centres undefined)	11
CN(CCn1cnnc1)CC(=O)NCc1ccc(Cl)s1	2.486
NC(CO)C1CCOCC1 (centres undefined)	-13.59
CC(C)NC(=O)c1ccc2[nH]nnc2c1	-1.232
O=C(CCO)NCC1CCN(c2ccccc2F)C1 (centres undefined)	0.2293
CCS(=O)(=O)NCCNC(=O)C1(C)CCCC1	-11.87
CC(CNc1ccc2nnnn2n1)N1CCOCC1 (centres undefined)	-3.391
Cc1cccn2cc(CN3CCOCS3(=O)=O)nc12	-7.114
Cc1noc(C2CCN(C(=O)c3ccoc3)CC2)n1	8.142
NCC1CCC(=O)N1 (centres undefined)	-19.16
NC1(CO)CCCc2ccccc21 (centres undefined)	-14.28
O=C(c1ccccc1I)N1CCNCC1	-4.488
COc1cccc(CN(C)C(=O)c2cc[nH]n2)n1	2.362
Cc1cc(CN)nn1C	7.752
NC1CCN(CC2CCCC2)C1 (centres undefined)	-4.658
CCN(C1CC1)S(=O)(=O)c1ccc(OC)c(C(N)=O)c1	-4.702
COCC(C)(O)C(F)(F)F (centres undefined)	7.186
COC(CN)C(C)C (centres undefined)	-8.195
CCC(=O)N1CCCN(C(=O)C(CC)(CC)CN)CC1	-6.229
COCCNC(=O)[C@H]1[C@@H]2CN(C3CCCC3)C[C@@H]21	-2.262
CCN1CCC(NC(C)c2ccc(F)cn2)CC1 (centres undefined)	-5.818
O=C(NCCc1nnc[nH]1)c1ccc(F)cc1Cl	1.759
CCc1ccc(C(N)COC)o1 (centres undefined)	1.863
CSCc1ccc(C(=O)NCCc2cccnc2)o1	8.53
O=C(CC1CCCN1)c1ccco1 (centres undefined)	18.29
CC(C)C1CN(C)CCN1Cc1csnn1 (centres undefined)	13.75
CCN1CC2(CCN(c3ccnc(C)c3)CC2)CC1=O	21.3
O=C(NCC1CCOC1)c1ccoc1C(F)(F)F (centres undefined)	-4.875
COc1ccc(Cl)c(S(=O)(=O)NC2CNC2)c1	-5.161
CN(C)S(=O)(=O)N(C1CCCC1)C1CC1	1.99
COC(=O)c1c[nH]c(SCc2cnc(C)s2)n1	-7.454
OCCC1(NCc2ccc(O)cc2)CCOCC1	6.071
O=C(NCCN1CCCCCC1=O)c1ccco1	-0.2947
CNC(=O)CNC(=O)Nc1c(C)cc(Br)cc1C	-4.841
CNc1nc(CN(C)CCn2ccnc2C)cs1	-20.09
NCCc1cc(C(F)(F)F)ccn1	99.23
CCN(C(=O)OC(C)(C)C)[C@H](C)CN	6.202
COc1cc(Cl)cc(CN(C)[C@H]2COC[C@@H]2O)c1OC	5.979
O=C(Cc1ccc(F)cc1F)NCCC1CCNC1 (centres undefined)	1.135
O=C(c1ccc(Br)cc1)N1CCNCC1	1.179
O=C(Nc1nncs1)NC1CCCC1	-16.53
CC(C)NC(=O)C(C)S(=O)(=O)Cc1ccccc1 (centres undefined)	-2.373
NC(=O)[C@@H]1Cc2ccccc2CO1	9.404
CCN(C(=O)NCc1sccc1C)C(C)CS(C)(=O)=O (centres undefined)	11.97
CCS(=O)(=O)Nc1ccc(C(=O)NC2CC2)cc1	-14.67
CCc1ccc(S(=O)(=O)NC2(C)CCS(=O)(=O)C2)cc1 (centres undefined)	-11.68
COC(=O)C(C)S(N)(=O)=O (centres undefined)	-3.315
CC(C)(NC(=O)c1cc(-c2ccccc2)[nH]n1)C(N)=O	1.844
CC(=O)NCCCNCc1cccc(Cl)c1F	-5.686
C(OC1CNC1)c1nc(C2CC2)no1	-11.04
Cn1ccnc1CC1CCNCC1	-3.905
COc1ccc(NCc2nc(=O)n(C)[nH]2)cc1	-10.68
CN(C(=O)c1ccccc1O)C1CCS(=O)(=O)C1 (centres undefined)	1.734
CC(CNC(=O)c1cc(Br)c[nH]1)N(C)C (centres undefined)	8.943
CC(NC(=O)c1ccoc1)C(=O)Nc1nccs1 (centres undefined)	-8.907
Cc1noc(CN2CCC(C(N)=O)CC2)n1	-10.32
CCN1CCN(Cc2cc(C(C)=O)ccc2OC)CC1	11.37
CSc1ncccc1C(=O)N1CCOCC1	-2.385
CNC(=O)NC1CN(C(=O)OC(C)(C)C)C1	8.552
O=C(NCCN1CCC(O)CC1)c1cncc(Cl)c1	-2.981
CC1CN(C(=O)CCCNC(=O)c2ccco2)CCO1 (centres undefined)	-8.945
NCCS(=O)(=O)NCc1ccccc1	-6.39
Cc1nnnn1CCC(=O)N1CC(N2CCCCC2)C1	0.8738
CS(=O)(=O)c1cccc(OCCN2CCCSCC2)c1	0.621
CC1CCCN(CCCN)C1 (centres undefined)	8.539
Cc1cccc(-n2nnc(C(N)=O)c2N)c1C	-3.137
CN(Cc1ccc(-n2cccn2)cc1)C(=O)[C@@H]1CCN1	0.6168

The last 5 entries again:

Compound,percent effect
Cc1nnnn1CCC(=O)N1CC(N2CCCCC2)C1,0.8738
CS(=O)(=O)c1cccc(OCCN2CCCSCC2)c1,0.621
CC1CCCN(CCCN)C1 (centres undefined),8.539
Cc1cccc(-n2nnc(C(N)=O)c2N)c1C,-3.137
CN(Cc1ccc(-n2cccn2)cc1)C(=O)[C@@H]1CCN1,0.6168